Data: US20170016004A1, “DDX5 AND ASSOCIATED NON-CODING RNAs AND MODULATION OF TH17 EFFECTOR FUNCTION” (priority 2015, published 2017)
Results are given in words; binding and its absence hold for the method and conditions named. Binding seen in cells or lysates may run through a third protein. Some binding calls cover weakened binding; strength is not graded here.

By UniProt entry, the sequences of proteins in these tests, tags left out. Where a name states a change or a piece, a line headed by the entry shows the natural chain unless it says otherwise. Chains listed by the source or under a name are the forms on record and can include a tag or linker.
UniProt Q61656: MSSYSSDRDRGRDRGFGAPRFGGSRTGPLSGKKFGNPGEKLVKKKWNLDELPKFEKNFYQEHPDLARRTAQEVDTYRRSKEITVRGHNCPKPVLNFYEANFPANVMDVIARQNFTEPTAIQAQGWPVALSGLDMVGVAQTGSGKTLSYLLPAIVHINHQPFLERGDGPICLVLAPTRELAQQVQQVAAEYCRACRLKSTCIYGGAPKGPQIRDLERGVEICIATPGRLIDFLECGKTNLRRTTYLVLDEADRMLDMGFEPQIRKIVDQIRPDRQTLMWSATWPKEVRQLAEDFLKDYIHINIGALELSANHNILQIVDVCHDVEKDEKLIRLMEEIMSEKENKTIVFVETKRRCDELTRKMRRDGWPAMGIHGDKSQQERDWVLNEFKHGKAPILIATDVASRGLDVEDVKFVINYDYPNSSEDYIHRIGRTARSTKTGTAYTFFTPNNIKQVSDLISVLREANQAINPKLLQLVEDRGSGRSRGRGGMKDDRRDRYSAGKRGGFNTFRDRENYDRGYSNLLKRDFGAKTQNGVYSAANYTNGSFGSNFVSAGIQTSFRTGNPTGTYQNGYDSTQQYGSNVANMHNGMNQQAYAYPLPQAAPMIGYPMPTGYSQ
RORγt (endogenous, mouse TH17 cells) (P51450, form named): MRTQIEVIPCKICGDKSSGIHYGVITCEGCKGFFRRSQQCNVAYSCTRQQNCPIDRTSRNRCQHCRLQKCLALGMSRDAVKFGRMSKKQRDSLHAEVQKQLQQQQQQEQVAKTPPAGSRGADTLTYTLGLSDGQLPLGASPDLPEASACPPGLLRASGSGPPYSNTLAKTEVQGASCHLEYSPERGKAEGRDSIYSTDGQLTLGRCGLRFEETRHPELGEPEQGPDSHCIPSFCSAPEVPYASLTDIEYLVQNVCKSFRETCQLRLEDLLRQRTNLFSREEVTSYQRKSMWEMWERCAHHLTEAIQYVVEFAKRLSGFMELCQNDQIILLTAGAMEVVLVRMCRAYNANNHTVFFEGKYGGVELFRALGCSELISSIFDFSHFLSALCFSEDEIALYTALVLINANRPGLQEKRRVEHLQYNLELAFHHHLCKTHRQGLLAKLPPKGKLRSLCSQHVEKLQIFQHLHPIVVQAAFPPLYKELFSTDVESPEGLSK

Target: RNA helicase DEAD-box protein 5 (DDX5) (endogenous, mouse TH17 cells) (mouse) (UniProt Q61656)
Test: co-immunoprecipitation with anti-DDX5, immunoblot

RORγt (endogenous, mouse TH17 cells) (from UniProt P51450 1-495) (receptor)
binding: binds
